From the supplement of paper PMC12819154, “High-throughput peptide-centric local stability assay extends protein–ligand identification to membrane proteins, tissues and bacteria” (Nature Structural & Molecular Biology, 2025)
Some of the results follow. Most values lie at the level of the controls, where differences are scatter.

Protein sequences, listed by entry. Tags and fused reporters are not part of them. Lines headed by an entry give the natural chain unless they say otherwise; changes in a name come on top.
UniProt Q9P2B4: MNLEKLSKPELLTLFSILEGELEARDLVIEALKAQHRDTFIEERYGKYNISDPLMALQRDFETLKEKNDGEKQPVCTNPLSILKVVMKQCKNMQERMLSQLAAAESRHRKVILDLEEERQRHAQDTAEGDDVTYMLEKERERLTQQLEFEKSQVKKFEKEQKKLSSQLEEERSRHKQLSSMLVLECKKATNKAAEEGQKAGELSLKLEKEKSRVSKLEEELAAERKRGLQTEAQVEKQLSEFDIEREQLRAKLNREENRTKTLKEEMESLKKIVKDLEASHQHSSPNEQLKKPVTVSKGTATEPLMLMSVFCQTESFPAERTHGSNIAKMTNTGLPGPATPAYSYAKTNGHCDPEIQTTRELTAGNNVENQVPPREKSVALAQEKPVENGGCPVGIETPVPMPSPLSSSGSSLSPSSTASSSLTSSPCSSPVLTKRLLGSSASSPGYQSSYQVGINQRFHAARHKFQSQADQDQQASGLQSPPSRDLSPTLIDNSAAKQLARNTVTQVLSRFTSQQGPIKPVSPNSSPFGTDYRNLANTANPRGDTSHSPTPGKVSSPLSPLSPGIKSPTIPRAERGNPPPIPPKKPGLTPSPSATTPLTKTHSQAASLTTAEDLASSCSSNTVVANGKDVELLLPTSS
UniProt Q9UEU0: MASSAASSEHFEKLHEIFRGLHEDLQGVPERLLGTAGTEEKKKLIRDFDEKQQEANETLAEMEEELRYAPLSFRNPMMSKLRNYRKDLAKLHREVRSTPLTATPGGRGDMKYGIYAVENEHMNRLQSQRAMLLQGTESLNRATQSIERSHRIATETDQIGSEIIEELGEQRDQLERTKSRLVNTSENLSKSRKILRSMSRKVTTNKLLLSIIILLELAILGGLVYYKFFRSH
UniProt Q9NZJ9: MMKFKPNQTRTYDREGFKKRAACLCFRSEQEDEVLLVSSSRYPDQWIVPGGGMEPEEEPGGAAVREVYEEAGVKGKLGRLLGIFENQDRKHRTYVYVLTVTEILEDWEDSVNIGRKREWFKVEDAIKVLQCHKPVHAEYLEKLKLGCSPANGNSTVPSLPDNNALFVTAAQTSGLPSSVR
UniProt Q9UEG4: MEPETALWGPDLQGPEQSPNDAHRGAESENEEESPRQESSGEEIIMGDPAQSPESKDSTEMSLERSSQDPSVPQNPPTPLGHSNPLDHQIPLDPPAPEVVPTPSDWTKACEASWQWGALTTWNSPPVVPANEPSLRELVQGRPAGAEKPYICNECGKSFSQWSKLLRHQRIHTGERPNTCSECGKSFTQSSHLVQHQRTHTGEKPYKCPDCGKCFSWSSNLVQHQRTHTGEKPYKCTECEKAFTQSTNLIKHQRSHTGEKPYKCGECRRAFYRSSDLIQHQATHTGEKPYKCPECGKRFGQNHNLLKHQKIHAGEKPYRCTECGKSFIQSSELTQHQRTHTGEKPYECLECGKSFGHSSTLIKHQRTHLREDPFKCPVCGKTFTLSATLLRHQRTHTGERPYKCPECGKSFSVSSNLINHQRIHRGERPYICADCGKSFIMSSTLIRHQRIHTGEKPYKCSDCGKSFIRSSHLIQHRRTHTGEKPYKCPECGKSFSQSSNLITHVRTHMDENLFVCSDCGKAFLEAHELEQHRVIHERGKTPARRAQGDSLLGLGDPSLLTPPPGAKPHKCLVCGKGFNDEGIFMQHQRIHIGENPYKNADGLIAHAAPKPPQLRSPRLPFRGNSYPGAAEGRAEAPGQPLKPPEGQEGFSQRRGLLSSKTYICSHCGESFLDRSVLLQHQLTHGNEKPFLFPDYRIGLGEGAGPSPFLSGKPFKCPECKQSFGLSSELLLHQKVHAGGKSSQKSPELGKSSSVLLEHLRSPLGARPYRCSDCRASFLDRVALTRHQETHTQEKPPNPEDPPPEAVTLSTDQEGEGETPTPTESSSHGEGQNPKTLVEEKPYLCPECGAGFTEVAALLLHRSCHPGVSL
UniProt Q9P2Q2: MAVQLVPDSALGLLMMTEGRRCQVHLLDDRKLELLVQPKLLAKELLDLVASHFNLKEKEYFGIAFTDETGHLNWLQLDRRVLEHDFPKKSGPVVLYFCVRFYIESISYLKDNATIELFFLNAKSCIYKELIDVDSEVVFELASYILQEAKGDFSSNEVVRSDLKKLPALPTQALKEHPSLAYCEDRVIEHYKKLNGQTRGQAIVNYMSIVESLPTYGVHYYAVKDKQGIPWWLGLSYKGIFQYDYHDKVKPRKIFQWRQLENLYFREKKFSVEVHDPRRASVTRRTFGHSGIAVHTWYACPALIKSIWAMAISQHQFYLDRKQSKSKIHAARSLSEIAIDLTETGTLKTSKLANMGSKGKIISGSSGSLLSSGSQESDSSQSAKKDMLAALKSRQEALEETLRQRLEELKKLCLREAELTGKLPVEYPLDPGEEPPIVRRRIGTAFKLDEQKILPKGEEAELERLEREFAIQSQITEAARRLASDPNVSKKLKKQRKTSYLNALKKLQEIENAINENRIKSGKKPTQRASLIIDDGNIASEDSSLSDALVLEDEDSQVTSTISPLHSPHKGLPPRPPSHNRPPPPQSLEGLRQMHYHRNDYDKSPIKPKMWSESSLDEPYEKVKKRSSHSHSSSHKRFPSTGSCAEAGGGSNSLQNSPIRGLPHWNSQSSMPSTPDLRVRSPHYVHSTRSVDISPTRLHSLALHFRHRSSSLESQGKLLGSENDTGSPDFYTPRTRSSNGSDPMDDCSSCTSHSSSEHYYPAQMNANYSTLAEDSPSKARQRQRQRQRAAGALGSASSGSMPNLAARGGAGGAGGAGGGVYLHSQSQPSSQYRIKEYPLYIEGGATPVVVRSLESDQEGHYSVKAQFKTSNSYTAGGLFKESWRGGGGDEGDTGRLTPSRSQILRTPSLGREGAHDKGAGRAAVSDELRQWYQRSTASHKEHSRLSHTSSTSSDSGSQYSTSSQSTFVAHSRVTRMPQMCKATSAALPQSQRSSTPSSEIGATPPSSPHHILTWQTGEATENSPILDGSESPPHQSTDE
UniProt Q9UBP9: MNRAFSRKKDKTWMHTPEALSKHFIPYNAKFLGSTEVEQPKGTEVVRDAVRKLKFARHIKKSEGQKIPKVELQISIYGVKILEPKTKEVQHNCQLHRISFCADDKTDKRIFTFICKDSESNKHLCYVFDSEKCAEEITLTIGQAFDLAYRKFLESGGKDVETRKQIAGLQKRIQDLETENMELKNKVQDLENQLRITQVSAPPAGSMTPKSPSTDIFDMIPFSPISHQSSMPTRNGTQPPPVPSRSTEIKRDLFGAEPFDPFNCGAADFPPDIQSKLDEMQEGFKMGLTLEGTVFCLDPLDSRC
UniProt Q9UK80: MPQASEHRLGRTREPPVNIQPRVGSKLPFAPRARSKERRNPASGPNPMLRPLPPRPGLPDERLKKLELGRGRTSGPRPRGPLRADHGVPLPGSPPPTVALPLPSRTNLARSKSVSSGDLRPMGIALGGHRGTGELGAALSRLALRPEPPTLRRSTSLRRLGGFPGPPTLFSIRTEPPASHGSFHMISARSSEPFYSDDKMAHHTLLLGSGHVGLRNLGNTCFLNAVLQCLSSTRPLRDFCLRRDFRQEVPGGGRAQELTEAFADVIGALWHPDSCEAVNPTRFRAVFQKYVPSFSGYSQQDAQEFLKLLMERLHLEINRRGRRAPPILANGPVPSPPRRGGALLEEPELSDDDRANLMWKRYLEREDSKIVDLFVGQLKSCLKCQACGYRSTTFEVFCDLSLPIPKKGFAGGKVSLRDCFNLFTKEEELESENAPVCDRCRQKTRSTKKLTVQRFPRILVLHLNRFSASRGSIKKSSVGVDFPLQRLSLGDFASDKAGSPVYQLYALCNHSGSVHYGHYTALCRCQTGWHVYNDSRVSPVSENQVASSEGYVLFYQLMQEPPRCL
UniProt Q9NZZ3: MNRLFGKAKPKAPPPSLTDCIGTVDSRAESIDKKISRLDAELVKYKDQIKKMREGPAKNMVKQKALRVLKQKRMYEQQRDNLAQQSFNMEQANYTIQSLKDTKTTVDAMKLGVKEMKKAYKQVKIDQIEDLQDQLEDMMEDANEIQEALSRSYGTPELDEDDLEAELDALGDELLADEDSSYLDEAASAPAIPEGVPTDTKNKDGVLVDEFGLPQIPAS
UniProt Q9UIL1: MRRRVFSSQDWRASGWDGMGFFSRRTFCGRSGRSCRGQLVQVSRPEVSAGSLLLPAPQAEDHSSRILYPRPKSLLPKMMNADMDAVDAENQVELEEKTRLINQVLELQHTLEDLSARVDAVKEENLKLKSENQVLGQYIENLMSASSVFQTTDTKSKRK
UniProt Q9UI10, whole entry: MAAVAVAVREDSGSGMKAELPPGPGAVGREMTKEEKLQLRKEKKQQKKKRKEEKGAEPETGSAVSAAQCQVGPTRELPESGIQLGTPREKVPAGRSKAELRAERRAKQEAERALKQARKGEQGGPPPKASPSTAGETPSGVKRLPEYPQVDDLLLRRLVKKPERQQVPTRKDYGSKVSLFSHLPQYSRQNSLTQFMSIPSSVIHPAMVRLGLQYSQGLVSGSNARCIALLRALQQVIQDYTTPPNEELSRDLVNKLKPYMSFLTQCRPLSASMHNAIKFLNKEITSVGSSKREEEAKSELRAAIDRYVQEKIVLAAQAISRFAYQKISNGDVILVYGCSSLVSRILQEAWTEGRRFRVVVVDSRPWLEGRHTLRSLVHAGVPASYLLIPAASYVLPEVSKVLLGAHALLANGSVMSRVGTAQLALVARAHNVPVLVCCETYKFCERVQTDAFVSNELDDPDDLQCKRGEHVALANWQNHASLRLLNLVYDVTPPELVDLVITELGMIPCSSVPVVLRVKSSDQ
UniProt Q9UI12, whole entry: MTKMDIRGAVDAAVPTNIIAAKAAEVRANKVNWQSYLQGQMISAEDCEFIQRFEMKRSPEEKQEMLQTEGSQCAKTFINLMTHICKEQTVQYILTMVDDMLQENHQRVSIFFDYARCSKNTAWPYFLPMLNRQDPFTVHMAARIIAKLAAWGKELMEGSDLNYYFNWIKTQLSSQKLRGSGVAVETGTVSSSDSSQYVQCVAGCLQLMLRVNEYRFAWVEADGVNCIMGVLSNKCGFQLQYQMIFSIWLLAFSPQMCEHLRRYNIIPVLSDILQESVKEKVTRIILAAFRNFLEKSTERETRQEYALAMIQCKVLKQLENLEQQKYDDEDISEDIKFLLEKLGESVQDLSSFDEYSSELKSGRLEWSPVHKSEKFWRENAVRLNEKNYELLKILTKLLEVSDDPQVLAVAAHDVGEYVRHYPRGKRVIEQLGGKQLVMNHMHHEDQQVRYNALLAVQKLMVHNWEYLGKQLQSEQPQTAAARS
UniProt Q9NZI8, whole entry: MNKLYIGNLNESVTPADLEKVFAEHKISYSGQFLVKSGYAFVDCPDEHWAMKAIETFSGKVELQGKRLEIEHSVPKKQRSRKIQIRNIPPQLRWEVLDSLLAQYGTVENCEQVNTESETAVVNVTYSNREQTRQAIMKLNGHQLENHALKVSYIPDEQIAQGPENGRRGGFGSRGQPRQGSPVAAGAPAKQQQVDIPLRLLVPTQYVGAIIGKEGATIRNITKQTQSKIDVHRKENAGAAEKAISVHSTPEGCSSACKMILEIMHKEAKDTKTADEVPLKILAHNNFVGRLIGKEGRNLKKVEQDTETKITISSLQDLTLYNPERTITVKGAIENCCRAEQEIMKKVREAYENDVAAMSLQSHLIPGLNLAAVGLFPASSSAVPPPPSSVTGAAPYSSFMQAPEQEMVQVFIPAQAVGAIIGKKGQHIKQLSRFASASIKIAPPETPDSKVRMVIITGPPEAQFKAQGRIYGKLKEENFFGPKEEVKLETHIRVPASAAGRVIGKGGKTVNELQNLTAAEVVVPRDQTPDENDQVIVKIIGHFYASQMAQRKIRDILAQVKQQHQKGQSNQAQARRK
UniProt Q9P2I0: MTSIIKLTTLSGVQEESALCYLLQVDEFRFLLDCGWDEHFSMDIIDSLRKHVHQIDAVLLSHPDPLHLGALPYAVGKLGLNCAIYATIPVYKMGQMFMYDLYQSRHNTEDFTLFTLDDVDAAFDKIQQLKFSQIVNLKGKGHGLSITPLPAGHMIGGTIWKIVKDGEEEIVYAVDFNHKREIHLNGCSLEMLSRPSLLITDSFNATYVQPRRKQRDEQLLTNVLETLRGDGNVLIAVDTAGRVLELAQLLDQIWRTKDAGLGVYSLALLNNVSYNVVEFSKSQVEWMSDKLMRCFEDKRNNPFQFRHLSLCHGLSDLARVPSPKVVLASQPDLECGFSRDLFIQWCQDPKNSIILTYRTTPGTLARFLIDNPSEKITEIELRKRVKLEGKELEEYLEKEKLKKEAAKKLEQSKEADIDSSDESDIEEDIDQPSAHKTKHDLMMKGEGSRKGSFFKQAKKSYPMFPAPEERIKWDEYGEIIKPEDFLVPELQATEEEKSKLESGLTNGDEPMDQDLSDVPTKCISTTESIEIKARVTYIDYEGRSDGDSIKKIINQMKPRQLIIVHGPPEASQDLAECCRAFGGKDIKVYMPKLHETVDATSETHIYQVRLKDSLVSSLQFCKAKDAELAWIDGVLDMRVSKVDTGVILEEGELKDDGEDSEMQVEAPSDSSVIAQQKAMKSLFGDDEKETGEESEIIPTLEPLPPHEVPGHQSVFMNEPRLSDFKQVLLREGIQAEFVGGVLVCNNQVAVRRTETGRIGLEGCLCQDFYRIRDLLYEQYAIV

Compound: CN[C@@H]1C[C@H]2O[C@@](C)([C@@H]1OC)n1c3ccccc3c3c4c(c5c6ccccc6n2c5c31)C(=O)NC4 [staurosporine]
Experiment: log2 fold change of tryptic peptide abundance, ligand vs vehicle (limited proteolysis) (log2 ratio); higher = more trypsin-susceptible (destabilized)
Conditions: ligand concentration: 20 uM; sample: K562 cleared lysate; digestion: 4 min, 22 C (HT-PELSA RT4min, Orbitrap Astral)

Row | Target | log2 fold change
1 | UniProt Q9UJA3 (peptide sequence: AGLALALFGGSQK, peptide start residue: 422) | 0.336
2 | CTTNBP2NL (peptide sequence: VILDLEEER, peptide start residue: 111) (UniProt Q9P2B4) | -0.413
3 | UniProt Q9UHA2 (peptide sequence: CIVEYQNK, peptide start residue: 34) | 0.055
4 | VPS54 (peptide sequence: EPTGDSHSLYVAPSLVTDQHR, peptide start residue: 43) (UniProt Q9P1Q0) | -0.651
5 | VTI1B (peptide sequence: YGIYAVENEHMNR, peptide start residue: 112) (UniProt Q9UEU0) | -0.243
6 | PRKAG2 (peptide sequence: VVDIYSKFDVINLAAEK, peptide start residue: 237) (UniProt Q9UGJ0) | -0.478
7 | COPG2 (peptide sequence: LFQSNDQTLRR, peptide start residue: 76) (UniProt Q9UBF2) | 0.272
8 | TSPYL4 (peptide sequence: NGCQLGEPR, peptide start residue: 115) (UniProt Q9UJ04) | 0.483
9 | NUDT4 (peptide sequence: LLGIFENQDRK, peptide start residue: 80) (UniProt Q9NZJ9) | 0.0504
10 | ZNF629 (peptide sequence: SFTQSSHLVQHQR, peptide start residue: 186) (UniProt Q9UEG4) | 0.21
11 | UniProt Q9P2Q2 (peptide sequence: IKEYPLYIEGGATPVVVR, peptide start residue: 834) | -0.355
12 | COPS7A (peptide sequence: QQIESEVANLKK, peptide start residue: 207) (UniProt Q9UBW8) | -0.0402
13 | GULP1 (peptide sequence: EVQHNCQLHR, peptide start residue: 88) (UniProt Q9UBP9) | 0.516
14 | UniProt Q9P278 (peptide sequence: LHLPADFCIMHLEDR, peptide start residue: 1044) | -0.387
15 | DDX20 (peptide sequence: VFEEKTQHLQELFSR, peptide start residue: 292) (UniProt Q9UHI6) | -0.615
16 | UniProt Q9UK80 (peptide sequence: LHLEINR, peptide start residue: 313) | 0.0657
17 | CHMP5 (peptide sequence: NKDGVLVDEFGLPQIPAS, peptide start residue: 202) (UniProt Q9NZZ3) | -0.117
18 | ANAPC4 (peptide sequence: GKYFNVER, peptide start residue: 467) (UniProt Q9UJX5) | -0.621
19 | SCOC (peptide sequence: VDAVKEENLK, peptide start residue: 118) (UniProt Q9UIL1) | -0.0157
20 | EIF2B4 (peptide sequence: GEHVALANWQNHASLR, peptide start residue: 468) (UniProt Q9UI10) | 0.414
21 | ATP6V1H (peptide sequence: TFINLMTHICK, peptide start residue: 76) (UniProt Q9UI12) | 0.275
22 | USP25 (peptide sequence: TLLEQFGDR, peptide start residue: 824) (UniProt Q9UHP3) | 0.444
23 | IGF2BP1 (peptide sequence: IIGHFYASQMAQR, peptide start residue: 539) (UniProt Q9NZI8) | -0.148
24 | RCOR3 (peptide sequence: KEGNTEQPVQTSK, peptide start residue: 181) (UniProt Q9P2K3) | -0.272
25 | CPSF2 (peptide sequence: AKDAELAWIDGVLDMR, peptide start residue: 623) (UniProt Q9P2I0) | 0.36

A portion from the list above, for reference:
Row | Target | log2 fold change
4 | VPS54 (peptide sequence: EPTGDSHSLYVAPSLVTDQHR, peptide start residue: 43) (UniProt Q9P1Q0) | -0.651
5 | VTI1B (peptide sequence: YGIYAVENEHMNR, peptide start residue: 112) (UniProt Q9UEU0) | -0.243
